Measured values as given in PMC6685158.
These are yes or no findings as the source states them, for the method shown. Binding calls can cover weak binding; strength is not graded here.

By UniProt entry, the sequences of proteins in these tests, tags left out. Where a name states a change or a piece, a line headed by the entry shows the natural chain unless it says otherwise.
UniProt P26718: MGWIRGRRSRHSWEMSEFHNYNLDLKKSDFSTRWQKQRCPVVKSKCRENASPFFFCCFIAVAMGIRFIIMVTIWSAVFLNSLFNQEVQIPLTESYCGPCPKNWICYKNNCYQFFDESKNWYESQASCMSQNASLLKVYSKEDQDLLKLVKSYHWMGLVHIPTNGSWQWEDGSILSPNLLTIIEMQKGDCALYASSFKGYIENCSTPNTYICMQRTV
UniProt Q29983: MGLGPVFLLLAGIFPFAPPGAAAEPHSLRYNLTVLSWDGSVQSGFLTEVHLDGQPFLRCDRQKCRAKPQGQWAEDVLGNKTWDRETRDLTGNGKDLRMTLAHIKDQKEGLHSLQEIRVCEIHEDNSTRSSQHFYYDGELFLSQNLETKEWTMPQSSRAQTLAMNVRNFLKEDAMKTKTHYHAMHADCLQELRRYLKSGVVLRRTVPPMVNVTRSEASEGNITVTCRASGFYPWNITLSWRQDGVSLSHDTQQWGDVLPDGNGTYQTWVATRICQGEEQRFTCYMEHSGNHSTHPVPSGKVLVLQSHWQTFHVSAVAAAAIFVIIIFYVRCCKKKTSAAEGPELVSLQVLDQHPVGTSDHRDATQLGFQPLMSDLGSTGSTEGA

Target: NKG2D receptor on primary human NK cells (human (endogenous in primary NK cells)) (UniProt P26718)
Assay: flow cytometry on cells; primary human NK cells pre-incubated with or without 5 uM MICA-ECD (4 °C, 4 h), then stained with anti-NKG2D PE (5C6 or 1D11) or anti-NKG2D mIgG1 (26F3) detected by anti-mouse IgG Fc PE; only the binder purified

binding: binds
Substance: MICA*002 extracellular domain (MICA-ECD) (from UniProt Q29983) (domain or fragment)
